Reference: paper PMC9120014
Results are given in words; binding and its absence hold for the method and conditions named. Binding seen in cells or lysates may run through a third protein. Some results given as binding are weak or reduced against the parent protein; the word gives no strength.

Chains of the proteins cited; added tags and fusions are not shown.
UniProt P63013: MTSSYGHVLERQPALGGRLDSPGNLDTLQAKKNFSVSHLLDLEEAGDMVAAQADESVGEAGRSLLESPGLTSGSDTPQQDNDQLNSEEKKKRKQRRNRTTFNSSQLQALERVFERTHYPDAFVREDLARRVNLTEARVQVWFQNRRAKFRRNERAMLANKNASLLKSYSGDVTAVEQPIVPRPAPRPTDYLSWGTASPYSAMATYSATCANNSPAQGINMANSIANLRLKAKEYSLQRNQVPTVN
UniProt Q8BUN5: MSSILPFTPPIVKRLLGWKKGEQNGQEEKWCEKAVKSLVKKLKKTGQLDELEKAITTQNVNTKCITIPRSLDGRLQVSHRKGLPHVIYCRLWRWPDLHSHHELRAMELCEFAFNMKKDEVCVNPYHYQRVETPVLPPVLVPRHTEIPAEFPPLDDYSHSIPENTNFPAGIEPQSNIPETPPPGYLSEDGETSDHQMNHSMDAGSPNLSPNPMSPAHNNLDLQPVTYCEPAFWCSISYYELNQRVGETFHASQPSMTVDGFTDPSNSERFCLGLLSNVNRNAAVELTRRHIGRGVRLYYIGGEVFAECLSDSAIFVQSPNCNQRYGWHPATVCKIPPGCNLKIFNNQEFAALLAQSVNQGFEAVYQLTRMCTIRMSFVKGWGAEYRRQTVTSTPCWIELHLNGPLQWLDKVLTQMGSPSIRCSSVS

Target: Prrx1 (paired related homeobox 1) (mouse (endogenous in MEF)) (UniProt P63013)
Assay: co-IP; Prrx1 precipitated from MEFs after sonication of the genome to 100 bp in length; Smad3 detected in the precipitate; repeated three times

## Smad3 (from UniProt Q8BUN5 1-425)
  binding: binds
